The source of these data is publication doi:10.1101/2020.01.08.898304 (bioRxiv, 2020).

Sequences of proteins named here, by UniProt entry; tags and fusion partners are left off.
UniProt P36873: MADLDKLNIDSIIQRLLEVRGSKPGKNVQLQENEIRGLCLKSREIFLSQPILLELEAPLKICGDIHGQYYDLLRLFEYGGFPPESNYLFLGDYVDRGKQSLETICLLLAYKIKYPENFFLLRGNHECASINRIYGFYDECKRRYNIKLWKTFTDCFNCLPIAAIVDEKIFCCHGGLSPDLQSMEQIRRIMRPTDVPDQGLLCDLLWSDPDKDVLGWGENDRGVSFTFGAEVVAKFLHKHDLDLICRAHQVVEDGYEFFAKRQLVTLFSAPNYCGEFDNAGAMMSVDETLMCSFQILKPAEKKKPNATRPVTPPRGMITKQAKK

The target in assay [1] is T1, Jacob-GFP (UniProt Q9EPI6).
T1 sequence: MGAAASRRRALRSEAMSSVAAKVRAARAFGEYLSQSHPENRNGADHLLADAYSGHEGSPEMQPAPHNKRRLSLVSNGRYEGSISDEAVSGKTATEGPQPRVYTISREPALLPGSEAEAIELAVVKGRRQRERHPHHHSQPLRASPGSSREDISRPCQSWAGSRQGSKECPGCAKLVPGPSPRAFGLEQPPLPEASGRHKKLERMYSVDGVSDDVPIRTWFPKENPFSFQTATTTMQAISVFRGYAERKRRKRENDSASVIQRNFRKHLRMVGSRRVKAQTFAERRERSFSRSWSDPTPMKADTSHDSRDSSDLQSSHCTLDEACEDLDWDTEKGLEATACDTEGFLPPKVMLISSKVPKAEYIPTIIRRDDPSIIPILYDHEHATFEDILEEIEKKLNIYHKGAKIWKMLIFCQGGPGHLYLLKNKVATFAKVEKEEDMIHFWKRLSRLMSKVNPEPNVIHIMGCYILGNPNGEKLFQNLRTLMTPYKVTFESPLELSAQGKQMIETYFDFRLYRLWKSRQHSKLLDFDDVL
The assay is described as follows: FRET or BRET. On the technique in general: Bioluminescence resonance energy transfer reports proximity on the nanometre scale.

The target of assay [2] is T2, GST-LMO4 (UniProt P61968).
T2 sequence: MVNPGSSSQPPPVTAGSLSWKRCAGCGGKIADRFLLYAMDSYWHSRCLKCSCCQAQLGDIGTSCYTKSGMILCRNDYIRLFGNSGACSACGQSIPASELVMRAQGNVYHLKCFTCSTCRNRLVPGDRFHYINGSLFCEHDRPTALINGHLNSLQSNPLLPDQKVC
The assay is described as follows: pull-down.

Another assay has as its target T3, Jacob-213-246-GFP (UniProt Q9EPI6).
T3 sequence: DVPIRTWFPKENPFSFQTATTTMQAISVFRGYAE
Briefly: co-IP.

A further assay concerns the target T4, Jacob-173-246-GFP (UniProt Q9EPI6).
T4 sequence: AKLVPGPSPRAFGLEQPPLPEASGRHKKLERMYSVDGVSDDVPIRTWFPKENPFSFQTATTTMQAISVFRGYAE
The assay is described as follows: co-IP.

The target in a further assay is T5, Jacob-310-532-GFP (UniProt Q9EPI6).
T5 sequence: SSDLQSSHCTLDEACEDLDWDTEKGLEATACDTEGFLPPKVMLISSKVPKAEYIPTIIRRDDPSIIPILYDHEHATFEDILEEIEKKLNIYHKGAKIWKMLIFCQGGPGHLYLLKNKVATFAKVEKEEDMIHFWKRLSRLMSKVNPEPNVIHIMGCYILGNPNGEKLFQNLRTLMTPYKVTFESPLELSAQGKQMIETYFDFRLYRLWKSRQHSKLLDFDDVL
Briefly: co-IP.

In assay [3] the target is T2, GST-LMO4. Briefly: pull-down. This is another data set of the same source.
Assay [4] addresses T2, GST-LMO4. The assay is described as follows: pull-down. The source holds these as a separate data set.
The target in another assay is T6, MBP-Jacob-45-532 (UniProt Q9EPI6).
T6 sequence: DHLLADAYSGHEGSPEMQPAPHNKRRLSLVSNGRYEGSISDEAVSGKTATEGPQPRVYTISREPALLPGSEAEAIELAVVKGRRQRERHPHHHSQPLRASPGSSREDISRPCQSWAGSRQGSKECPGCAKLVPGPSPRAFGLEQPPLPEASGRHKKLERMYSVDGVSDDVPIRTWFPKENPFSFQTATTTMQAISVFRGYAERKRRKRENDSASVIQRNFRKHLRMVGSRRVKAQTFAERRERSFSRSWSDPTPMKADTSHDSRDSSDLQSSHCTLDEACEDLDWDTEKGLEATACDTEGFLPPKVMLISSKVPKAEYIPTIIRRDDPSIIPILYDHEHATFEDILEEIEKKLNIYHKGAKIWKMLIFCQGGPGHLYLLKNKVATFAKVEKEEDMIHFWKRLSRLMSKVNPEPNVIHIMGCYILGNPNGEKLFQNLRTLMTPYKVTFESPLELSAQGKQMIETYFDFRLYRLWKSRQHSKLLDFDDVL
The assay is described as follows: pull-down.

Assay [5] has as its target T1, Jacob-GFP. Briefly: FRET or BRET. The source holds these as a separate data set.
Assay [6] addresses T1, Jacob-GFP. Briefly: FRET or BRET. The source holds these as a separate data set.
The target in assay [7] is T7, N-terminus of Jacob (117-172 aa), pull-down fragment (UniProt Q9EPI6).
T7 sequence: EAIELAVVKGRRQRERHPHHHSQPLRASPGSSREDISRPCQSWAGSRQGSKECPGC
Briefly: pull-down.

A further assay has as its target T8, MBP-Jacob-262-532 (UniProt Q9EPI6).
T8 sequence: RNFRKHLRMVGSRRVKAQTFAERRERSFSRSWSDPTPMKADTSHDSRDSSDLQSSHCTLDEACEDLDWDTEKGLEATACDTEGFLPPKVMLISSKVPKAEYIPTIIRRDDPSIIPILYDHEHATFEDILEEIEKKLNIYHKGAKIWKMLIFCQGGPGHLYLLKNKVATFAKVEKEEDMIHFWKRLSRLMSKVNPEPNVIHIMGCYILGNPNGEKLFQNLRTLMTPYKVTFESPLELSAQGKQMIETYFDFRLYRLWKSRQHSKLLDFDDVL
The assay is described as follows: pull-down.

In assay [8] the target is T2, GST-LMO4. The assay is described as follows: pull-down. This is another data set of the same source.
A further assay has as its target T9, LMO4-GFP (UniProt P61968).
T9 sequence: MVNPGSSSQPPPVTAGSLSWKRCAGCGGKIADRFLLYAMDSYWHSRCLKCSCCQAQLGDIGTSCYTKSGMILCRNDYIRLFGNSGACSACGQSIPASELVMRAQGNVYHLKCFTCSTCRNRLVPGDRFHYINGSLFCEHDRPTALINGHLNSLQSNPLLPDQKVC
Briefly: FRET or BRET.

The target in a further assay is T10, Jacob-262-532-GFP (UniProt Q9EPI6).
T10 sequence: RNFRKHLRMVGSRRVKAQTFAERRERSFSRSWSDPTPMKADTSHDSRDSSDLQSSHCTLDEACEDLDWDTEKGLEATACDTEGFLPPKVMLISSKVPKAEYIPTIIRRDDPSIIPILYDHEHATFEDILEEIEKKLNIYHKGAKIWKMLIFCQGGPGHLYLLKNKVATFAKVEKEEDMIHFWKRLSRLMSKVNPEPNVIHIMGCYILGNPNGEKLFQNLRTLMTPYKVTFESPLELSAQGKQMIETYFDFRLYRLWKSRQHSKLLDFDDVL
Briefly: FRET or BRET.

A further assay addresses T11, Jacob-1-228-GFP (UniProt Q9EPI6).
T11 sequence: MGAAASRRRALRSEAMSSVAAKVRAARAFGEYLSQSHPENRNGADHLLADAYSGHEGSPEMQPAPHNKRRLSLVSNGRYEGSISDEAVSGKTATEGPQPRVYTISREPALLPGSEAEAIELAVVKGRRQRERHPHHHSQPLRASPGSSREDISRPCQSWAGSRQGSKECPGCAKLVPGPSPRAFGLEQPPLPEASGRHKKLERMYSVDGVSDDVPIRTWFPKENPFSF
The assay is described as follows: FRET or BRET.

Another assay concerns the target CREB-GFP (UniProt P15337). Briefly: FRET or BRET.

Like-named read-outs stand apart in the source and are kept apart here. No constants are given. Whether binding was seen depends on the method and setting. For part of these data: In cells and extracts the contact can be indirect. Some results given as binding are weak or reduced against the parent protein; the word gives no strength. Tags and fused reporters may be left off the sequences shown.

Take CREB-RLuc (from UniProt P15337-1 1-341): the binding result with Jacob-GFP [1] is recorded as “binds”. On the same count and under the same terms, to “CREB-1-165-tagRFP (from UniProt P15337-1 1-165) (domain or fragment)” belongs “no binding”.

For “His-SUMO-1-165-CREB (from UniProt P15337-1 1-165) (domain or fragment)”, in the assay with GST-LMO4 [2], the binding entry is “no binding”. As to “mCherry-PP1γ (from UniProt P36873 1-323) (enzyme)”, the binding result with Jacob-213-246-GFP, with Jacob-173-246-GFP and in the assay with Jacob-310-532-GFP was “binds” throughout. Regarding “His-SUMO-CREB (from UniProt P15337-1 1-341)”, the binding result with GST-LMO4 [3], with GST-LMO4 [4], with MBP-Jacob-45-532 and with GST-LMO4 [2] was “binds” each time. On to “His-PP1γ (from UniProt P36873 1-323) (enzyme)”, for which, in the assay with MBP-Jacob-45-532, the binding result is reported as “binds”.

B1: GST-LMO4 (natural protein, UniProt P61968 1-165, looked up)
chain: MVNPGSSSQPPPVTAGSLSWKRCAGCGGKIADRFLLYAMDSYWHSRCLKCSCCQAQLGDIGTSCYTKSGMILCRNDYIRLFGNSGACSACGQSIPASELVMRAQGNVYHLKCFTCSTCRNRLVPGDRFHYINGSLFCEHDRPTALINGHLNSLQSNPLLPDQKVC
B1: the binding result with Jacob-GFP [5] and with Jacob-GFP [6] was “binds” each time.

B2: His-SUMO-CREB-294-341 (domain or fragment, UniProt P15337-1 294-341)
chain: REAARECRRKKKEYVKCLENRVAVLENQNKTLIEELKALKDLYCHKSD
For the molecule B2, the binding entry was “binds” in assay [7], “binds” with MBP-Jacob-262-532 and “no binding” with GST-LMO4 [8].

B3: His-SUMO-CREB-166-293 (domain or fragment, UniProt P15337-1 166-293)
chain: TTVTVPTPIYQTSSGQYIAITQGGAIQLANNGTDGVQGLQTLTMTNAAATQPGTTILQYAQTTDGQQILVPSNQVVVQAASGDVQTYQIRTAPTSTIAPGVVMASSPALPTQPAEEAARKREVRLMKN
For the molecule B3, the binding result in assay [7] was “no binding”.

B4: His-SUMO-CREB-1-88 (domain or fragment, UniProt P15337-1 1-88)
chain: MTMDSGADNQQSGDAAVTEAESQQMTVQAQPQIATLAQVSMPAAHATSSAPTVTLVQLPNGQTVQVHGVIQAAQPSVIQSPQVQTVQS
For B4, the binding result in [7] is given as “no binding”.

B5: CREB-166-341-tagRFP (domain or fragment, UniProt P15337-1 166-341)
chain: TTVTVPTPIYQTSSGQYIAITQGGAIQLANNGTDGVQGLQTLTMTNAAATQPGTTILQYAQTTDGQQILVPSNQVVVQAASGDVQTYQIRTAPTSTIAPGVVMASSPALPTQPAEEAARKREVRLMKNREAARECRRKKKEYVKCLENRVAVLENQNKTLIEELKALKDLYCHKSD
Consider B5, for which the binding entry with Jacob-GFP [5], with LMO4-GFP, with Jacob-262-532-GFP and with Jacob-1-228-GFP was “binds” in each case.

B6: His-SUMO-166-341-CREB (domain or fragment, UniProt P15337-1 166-341)
chain: TTVTVPTPIYQTSSGQYIAITQGGAIQLANNGTDGVQGLQTLTMTNAAATQPGTTILQYAQTTDGQQILVPSNQVVVQAASGDVQTYQIRTAPTSTIAPGVVMASSPALPTQPAEEAARKREVRLMKNREAARECRRKKKEYVKCLENRVAVLENQNKTLIEELKALKDLYCHKSD
On to B6, for which the binding result in the assay with GST-LMO4 [8] is listed as “binds”.

B7: LIM2-81-165-tagRFP (domain or fragment, UniProt P61968 81-165)
chain: FGNSGACSACGQSIPASELVMRAQGNVYHLKCFTCSTCRNRLVPGDRFHYINGSLFCEHDRPTALINGHLNSLQSNPLLPDQKVC
For B7, the binding result with CREB-GFP is “no binding”.
